Results: the supplement of paper PMC7877785
± gives the uncertainty stated by the source. The uncertainty is large for many entries.

Assay: self-splicing fitness, log relative to wild type (ln ratio); higher = more splicing; Tetrahymena group I intron in knt gene, E. coli kanamycin selection, DiMSum; sequences stand for … in CUCUCU…GGAGGGAAAAGUUAUCAGGCAUGCACCUGGUAGCUAGUCUUUAAACCAAUAGAUUGCAUCGGUUUAAAAGGCAAGACCGUCAAAUUGCGGGAAAGGGGUCAACAGCCGUUCAGUACCAAGUCUCAGGGGAAACUUUGAGAUGGCCUUGCAAAGGGUAUGGUAAUAAGCUGACGGACAUGGUCCUAACCACGCAGCCAAGUCCUAAGUCAACAGAUCUUCUGUUGAUAUGGAUGCAGUUCACAGACUAAAUGUCGGUCGGGGAAGAUGUAUUCUUCUCAUAAGAUAUAGUCGGACCUCUCCUUAAUGGGAGCUAGCGGAUGAAGUGAUGCAACACUGGAGCCGCUGGGAACUAAUUUGUAUGCGAAAGUAUAUUGAUUAGUUUUGGAGUACUCGUGGUCG
Procedure, shortened: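 Pooled colonies went to amplicon sequencing on an Illumina HiSeq 2500 after six replicate transformations. The plates were LB agar with 100 μg/mL carbenicillin, 50 μM IPTG and 0.2% rhamnose, with or without 25 μg/mL kanamycin, incubated overnight at 37°C or 30°C. The E. coli BL21(DE3) library had all eight P1ex-region intron nucleotides randomised, the intron placed in the knt kanamycin-resistance gene on pET-22b(+). DiMSum fitness is the error-weighted combination of replicate fold changes, kanamycin against none, normalised to wild type.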

| Sequence | self-splicing fitness (ln) (30 °C) | self-splicing fitness (ln) (37 °C) |
| --- | --- | --- |
| AAAAAGCAAUAUUACGCAUA | -1.5 ± 0.11 | -0.715 ± 0.1 |
| GCCCAGCAAUAUUACGGGCA | -2.35 ± 0.2 | -2.69 ± 0.21 |
| CUAUAGCAAUAUUACGCCAC | -3.21 ± 0.76 |  |
| CCACAGCAAUAUUACGCUGC | -3.06 ± 0.17 | -2.72 ± 0.28 |
| UCUGAGCAAUAUUACGAUAA | -3.77 ± 1 |  |
| GAGAAGCAAUAUUACGCCAC | -3.42 ± 0.61 |  |
| GAAGAGCAAUAUUACGAUUG | -2.53 ± 0.29 | -2.4 ± 0.39 |
| AUCGAGCAAUAUUACGGUCG |  | -3 ± 0.74 |
| AACAAGCAAUAUUACGAGGG | -3 ± 0.11 | -1.35 ± 0.15 |
| UGUCAGCAAUAUUACGUGAA | -0.122 ± 0.068 | 0.427 ± 0.083 |
| AAGUAGCAAUAUUACGGGCC | -2.75 ± 0.63 |  |
| GCGGAGCAAUAUUACGCAGG | -2.44 ± 0.78 | -1.56 ± 0.55 |
| UCGGAGCAAUAUUACGCGCA |  | -0.494 ± 0.51 |
| CGUUAGCAAUAUUACGCUUC | -3.17 ± 1 |  |
| UUGAAGCAAUAUUACGAUUG | -1.35 ± 0.088 | 0.272 ± 0.11 |
| CCUGAGCAAUAUUACGUCCU |  | -2.92 ± 0.61 |
| CCUAAGCAAUAUUACGAGAA |  | -2.76 ± 0.55 |
| GCAGAGCAAUAUUACGAUCG | -3.22 ± 0.64 |  |
| UACCAGCAAUAUUACGCGCC | -1.46 ± 0.12 | -1.1 ± 0.2 |
| GGGUAGCAAUAUUACGAACA | -1.63 ± 0.54 |  |

| Sequence | self-splicing fitness (ln) (30 °C) | self-splicing fitness (ln) (37 °C) |
| --- | --- | --- |
| AAGCAGCAAUAUUACGUUAA | -1.76 ± 0.12 | -2.14 ± 0.14 |
| UCUUAGCAAUAUUACGUGGC | -4.8 ± 1 |  |
| CCCGAGCAAUAUUACGGAAU | -4.53 ± 0.51 | -3.05 ± 0.53 |
| AGGCAGCAAUAUUACGCUGC | -2.5 ± 0.63 |  |
| ACGAAGCAAUAUUACGGGAC | -4.36 ± 0.24 | -2.68 ± 0.18 |
| UCGGAGCAAUAUUACGGUUC | -3.94 ± 0.51 |  |
| UAGGAGCAAUAUUACGGGGA | -4.18 ± 0.74 | -0.969 ± 0.77 |
| ACAUAGCAAUAUUACGAGGA | -3.66 ± 0.52 |  |
| GAUAAGCAAUAUUACGCCAG | -2.86 ± 0.54 | -2.01 ± 0.51 |
| UAAGAGCAAUAUUACGACCA | -2.43 ± 0.54 | -1.29 ± 1.2 |
| CAUUAGCAAUAUUACGGGAA | -4.2 ± 0.52 |  |
| CGAUAGCAAUAUUACGACCC |  | 0.108 ± 0.65 |
| UUCGAGCAAUAUUACGGUCG | -4.23 ± 0.51 |  |
| CUCGAGCAAUAUUACGAUGU | -4.86 ± 0.71 |  |
| UGCGAGCAAUAUUACGCUGG | -2.62 ± 0.62 | -2.66 ± 0.62 |
| UUUUAGCAAUAUUACGCCAU | -3.47 ± 0.73 | -2.93 ± 0.75 |
| UUGGAGCAAUAUUACGGGUA | -4.37 ± 1 |  |
| GAAGAGCAAUAUUACGGAGU | -3.07 ± 0.46 | -2.47 ± 0.45 |
| UAAGAGCAAUAUUACGGCCC |  | -1.78 ± 1.2 |
| AGGAAGCAAUAUUACGCGGC | -3.96 ± 1 |  |

A few values from the entries so far.
self-splicing fitness (ln) (30 °C), AGGCAGCAAUAUUACGCUGC is entered as -2.5 ± 0.63
self-splicing fitness (ln) (37 °C), CCUAAGCAAUAUUACGAGAA is entered as -2.76 ± 0.55
self-splicing fitness (ln) (30 °C), CCACAGCAAUAUUACGCUGC is entered as -3.06 ± 0.17
self-splicing fitness (ln) (30 °C), GAAGAGCAAUAUUACGGAGU is entered as -3.07 ± 0.46

Additional results.

| Sequence | self-splicing fitness (ln) (30 °C) | self-splicing fitness (ln) (37 °C) |
| --- | --- | --- |
| GCCGAGCAAUAUUACGGCCG | -3.96 ± 0.61 |  |
| UAUUAGCAAUAUUACGCCAU | -4.14 ± 0.6 |  |
| ACGCAGCAAUAUUACGCUCC | -2.36 ± 0.5 |  |
| AGGAAGCAAUAUUACGAAGC | -3.34 ± 1 | -1.1 ± 0.92 |
| GAUGAGCAAUAUUACGAGCA |  | -2.08 ± 1.1 |
| UCGCAGCAAUAUUACGUACC | -4.49 ± 1 | -2.22 ± 0.65 |
| CGUUAGCAAUAUUACGCAUC | -2.23 ± 0.52 |  |
| AAGUAGCAAUAUUACGCUUC | -4.67 ± 0.59 |  |
| CUCUAGCAAUAUUACGAGGC |  | -3.28 ± 0.74 |
| GGAUAGCAAUAUUACGCCAU | -2.07 ± 0.61 | -1.41 ± 0.52 |
| CCUUAGCAAUAUUACGCGAU | -5.23 ± 0.72 | -3.16 ± 0.22 |
| AGUGAGCAAUAUUACGUGAU | -2.87 ± 0.26 | -2.74 ± 0.34 |
| GGAGAGCAAUAUUACGUCUC |  | -1 ± 0.77 |
| UGCAAGCAAUAUUACGUCAC | -2.88 ± 0.47 | -2.27 ± 0.24 |
| UUGUAGCAAUAUUACGGUAC | -4.6 ± 0.59 | -2.94 ± 1 |
| GGUUAGCAAUAUUACGGGAA | -0.855 ± 0.58 | -2.35 ± 0.57 |
| UCUUAGCAAUAUUACGGUUA | -2.94 ± 0.57 |  |
| AAGGAGCAAUAUUACGGCAA |  | -0.839 ± 0.74 |
| GUGGAGCAAUAUUACGACGG | -2.15 ± 0.56 | -2.19 ± 0.78 |
